Data on one molecule can be found in patent US20140024594A1.

The assay has as its target T1, MG53 (mitsugumin 53, TRIM72), endogenous mouse protein from skeletal muscle (mouse) (UniProt Q1XH17).
T1 sequence (looked up): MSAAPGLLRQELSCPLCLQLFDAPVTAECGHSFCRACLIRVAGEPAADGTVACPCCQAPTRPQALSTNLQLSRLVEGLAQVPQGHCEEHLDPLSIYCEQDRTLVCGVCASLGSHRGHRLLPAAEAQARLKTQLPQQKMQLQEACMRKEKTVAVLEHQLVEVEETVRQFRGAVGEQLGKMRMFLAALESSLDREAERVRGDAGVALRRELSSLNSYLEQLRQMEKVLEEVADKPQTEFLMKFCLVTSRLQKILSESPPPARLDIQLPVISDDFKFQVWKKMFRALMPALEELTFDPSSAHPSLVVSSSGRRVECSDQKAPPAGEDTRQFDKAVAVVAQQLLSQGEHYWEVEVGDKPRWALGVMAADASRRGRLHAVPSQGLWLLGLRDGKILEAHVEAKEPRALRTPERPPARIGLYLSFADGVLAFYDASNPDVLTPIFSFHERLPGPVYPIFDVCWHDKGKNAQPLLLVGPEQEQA
Description: co-immunoprecipitation from mouse gastrocnemius skeletal muscle lysate with anti-MG53 and anti-caveolin-3 antibodies.

No constants are given. Whether binding was seen depends on the method and setting. Binding seen in cells or lysates may run through a third protein. Some results given as binding are weak or reduced against the parent protein; the word gives no strength.

B1: caveolin-3, endogenous mouse protein from skeletal muscle (protein, UniProt P51637 1-151, looked up)
chain: MMTEEHTDLEARIIKDIHCKEIDLVNRDPKNINEDIVKVDFEDVIAEPEGTYSFDGVWKVSFTTFTVSKYWCYRLLSTLLGVPLALLWGFLFACISFCHIWAVVPCIKSYLIEIQCISHIYSLCIRTFCNPLFAALGQVCSNIKVVLRREG
As to B1, the binding entry was “binds”.
